Measurements: US9345655B2, “Oral care compositions” (BRIGHAM YOUNG UNIVERSITY, priority 2011, dated 2016)

Tested on: bacterial culture
Assay: Minimum inhibitory concentration (MIC), serial 2-fold dilution in 96-well plate
Format: cell-based
Conditions: overnight incubation in TSB, inoculum 0.2 OD
Protocol: The biological activity of the ceragenin and quaternary ammonium compounds can be determined by standard methods known to those of skill in the art, such as the “minimum inhibitory concentration (MIC)” assay, whereby the lowest concentration at which no change in optical density (OD) is observed for a given period of time is recorded as MIC. When the compound alone is tested against a control that lacks the compound, the antimicrobial effect of the compound alone is determined.
To evaluate minimum inhibitory concentrations (MICs), the concentration of the twenty four hour culture in log phase is adjusted by diluting in tryptic soy broth (TSB) so that an optical density of 0.2 at 610nm is obtained. The bacterial culture is then ready to be used for testing.
Three solutions are prepared: (1) 1% CPC solution in ethanol; (2) 1% solution of the Compound of Formula (II) in water; and (3) 0.5% of a Compound of Formula (II) +0.5% CPC. The solutions are diluted 1:9 in TSB. They are added to a 96-well plate and a serial dilution (2-fold) is made across the plate. The bacterial inoculum at 0.2 OD, 1000, is added to every well. The plate is incubated overnight and read on a plate reader the following day.

In the case of `CCCCCCCCCCCCCCCC[n+]1ccccc1` [CPC, cetylpyridinium chloride, reference compound], the MIC is reported as 0.98 mg/L.
